# Measured values from PubChem BioAssay AID504329 (Southern Research Specialized Biocontainment Screening …, 2011).
# Several values for one entry are separate records, joined by “and”; a condition that tells them apart may be missing. Equal values may be shown once. Among all 340,000 compounds or so, about 1,000 (0.29%) were called active. The shares of active, inactive and inconclusive entries below differ from those in the screen. Rule as the data show it: inconclusive = inhibition above about 27% without an active follow-up result; inactive = below that.
# Assay: NS1A inhibition, H1N1 influenza, cell based functional assay (AID 504329)
# Settings: percent inhibition, at 12.5 µM, stronger effect = higher value
row,Structure (SMILES),inhibition
1,COc1ccc2cc1Oc1ccc(cc1)C[C@H]1c3c(cc(OC)c4c3Oc3c(ccc5c3[C@H](C2)N(C)CC5)O4)CCN1C,inconclusive: 45.7%
2,CCOC(=O)N1CCN(c2cc(NCCO)c([N+](=O)[O-])c3nonc23)CC1,inactive: -0.42%
3,C=CC(=O)Nc1ccc(Nc2ccnc(Nc3ccc(N4CCN(C)CC4)cc3)n2)cc1,inconclusive: 46.1%
4,CCN1CCN(c2cc(N3CCN(C(=O)c4ccco4)CC3)c3c4c(onc24)-c2ccccc2C3=O)CC1,inconclusive: 48.4%
5,O=C(NC(=S)Nc1ccc(F)c([N+](=O)[O-])c1)c1ccccc1F,inactive: 6.76%
6,O=C1c2ccccc2C(=O)c2c(Nc3ccc(CCO)cc3)ccc(O)c21,inconclusive: 32.1%
7,CCN=c1scc(-c2ccccc2)n1/N=C/c1ccccn1,inconclusive: 29.3%
8,Oc1cc2c(cc1O)C1c3ccc(O)c(O)c3OCC1(O)C2 (configuration not stated),inconclusive: 35.9%
9,O=C(Nc1cccc(O)c1)c1ccc([N+](=O)[O-])cc1Cl,inactive: -2.66%
10,Cc1cc2ccccc2n1CCNC(=O)COc1ccccc1,inconclusive: 45.1%
11,Cc1ccc([N+](=O)[O-])cc1S(=O)(=O)Nc1ccc(-c2ccc(N3CCOCC3)nn2)cc1,inactive: -3.07%
12,O=C1/C(=C\c2cc(Br)cc(Br)c2O)SC(=S)N1Cc1ccccc1,inconclusive: 40%
13,C=CCSc1nnc(-c2cccc3ccccc23)o1,inconclusive: 81%
14,Oc1ccc(Cn2ccnc2)c2cccnc12,inconclusive: 93.1%
15,C=CCNc1oc(-c2ccc(-c3ccccc3)cc2)nc1C#N,inconclusive: 30.5%
16,O=C(N/N=C/c1ccc(Br)cc1)c1cc[n+]([O-])cc1,inactive: 6.04%
17,C=CCn1c(SCc2nc3ccccc3[nH]2)nnc1-c1ccncc1,inconclusive: 29.6%
18,CCOC(=O)C1=C(SCC)c2cc3c(n2C1=O)CCCC3,inconclusive: 53.5%
19,COc1cc(/C=C2\SC(=O)N(c3ccc(Cl)cc3)C2=O)cc([N+](=O)[O-])c1O,inactive: -5.87%
20,O=C(CN1CC(=O)Oc2ccccc21)OCC(=O)c1cccc(Br)c1,inconclusive: 94.9%
21,NC(=Nc1ccc(N)cc1)C(N)=Nc1ccc(N)cc1,inconclusive: 38.1%
22,COc1ccc(C(=O)c2sc(Nc3ccc(NC(C)=O)cc3)nc2C)cc1,inactive: -2.13%
23,CCOC(=O)N1CCC(=C(C#N)C(=O)Nc2cc(OC)ccc2OC)CC1,inactive: 7.42%
24,CC(C)(C)c1ccc(CN(Cc2ccccc2)C(c2ccccn2)c2nnnn2C(C)(C)C)cc1 (configuration not stated),inactive: 9.19%
25,N#Cc1c(N2CCCC(O)C2)nc(N)c2c(N)nc3c(c12)CC(=O)N3C12CC3CC(CC(C3)C1)C2 (configuration not stated),inconclusive: 32.9%
26,C/C(=N\Nc1nc2ccccc2[nH]1)c1ccccn1,inconclusive: 98.7%

# Taken from above:
# In inhibition, `N#Cc1c(N2CCCC(O)C2)nc(N)c2c(N)nc3c(c12)CC(=O)N3C12CC3CC(CC(C3)C1)C2` (configuration not stated) has inconclusive: 32.9%
# In inhibition, `Cc1ccc([N+](=O)[O-])cc1S(=O)(=O)Nc1ccc(-c2ccc(N3CCOCC3)nn2)cc1` has inactive: -3.07%

# (further entries)

row,Structure (SMILES),inhibition
1,CCOc1ccc(NC(=O)C(c2ccccn2)N(C(=O)CCl)c2ccc(F)cc2)cc1 (configuration not stated),inconclusive: 31.5%
2,O=[N+]([O-])c1cccnc1SCc1ccccc1,inconclusive: 33%
3,C#CCOCCOCCOCCNc1nc(N2CCN(C(=O)CCCCCCCCCCNC(=O)[C@H]([C@@H](C)CC)n3cc(CCCCCN)nn3)CC2)nc(N2CCN(C(=O)CCCCCCCCCCNC(=O)[C@H]([C@@H](C)CC)n3cc(CCCCN=C(N)N)nn3)CC2)n1,inconclusive: 38.9%
4,Cc1ccc(Cl)cc1NC1=C/C(=N\S(=O)(=O)c2cccs2)c2ccccc2C1=O,inactive: 17.4% and inactive: 16.6%
5,COC(=O)CCCCC1SCC2NC(=O)NC21O (configuration not stated),inconclusive: 30%
6,COc1ccc(-c2c(C#Cc3ccc(N(C)C)cc3)c3ccccc3n2C)cc1,inconclusive: 32%
7,Oc1ccc(CN2CCCCC2)c2cccnc12,inconclusive: 88.6%
8,CC1=CC(C)(C)N2C(=O)C(=Nc3ccc(O)cc3)c3cccc1c32,inconclusive: 31.9%
9,CC1(C)Oc2ccc3ccc(=O)oc3c2/C(=C/NNC(N)=O)C1=O,inactive: -7.94%
10,COc1ccc(C(CCNCc2ccc(OC(C)C)cc2)c2ccccc2OC)cc1 (configuration not stated),inactive: 3.25%
11,Oc1cc(NCCN2CCOCC2)cc2cccnc12,inconclusive: 86.6%
12,CCC(C)(C)C1CCc2c(sc(N)c2C(N)=O)C1 (configuration not stated),inconclusive: 36.8%
13,C=CC[C@H]1C=C[C@@H](C(C(=O)OC)C(=O)OC)CN1C(C)=O,inactive: -4.78%
14,CCN(CC)c1ccc(N)cc1,inconclusive: 46.8%
15,COc1cccc(/C=N/Nc2ccc([N+](=O)[O-])cn2)c1O,inconclusive: 56.7%
16,COc1ccccc1N1CCN(Cc2ccccc2)CC1,inactive: -11.8%
17,C#CCOCCOCCOCCNc1nc(N2CCN(C(=O)CCCCCCCCCCNC(=O)[C@H]([C@@H](C)CC)n3cc(CCCCCN)nn3)CC2)nc(N2CCN(C(=O)CCCCCCCCCCNC(=O)[C@@H]([C@H](C)O)n3cc(C)nn3)CC2)n1,inconclusive: 31.9%
18,CCCN(CCC)c1nc(-c2ccccn2)nc2ccccc12,inactive: 10.6%
19,CC(C)Cc1nnc(NC(=O)c2ccncc2)s1,inactive: 7%
20,CN(C)c1ccc(N=Cc2cccn2C)cc1,inconclusive: 33.8%
21,C#CCOCCOCCOCCNc1nc(N2CCN(C(=O)CCCCCCCCCCNC(=O)[C@H]([C@@H](C)CC)n3cc(CCCCN=C(N)N)nn3)CC2)nc(N2CCN(C(=O)CCCCCCCCCCNC(=O)[C@H](CO)n3cc(CCCSC)nn3)CC2)n1,inactive: -16.7%
22,CC(C)COCc1ccc(O)c2ncccc12,inactive: 1.04%
23,Cc1ccc(NCC(=O)N/N=C/c2ccncc2)cc1,inactive: -3.31%
24,CN(CC1CCCO1)S(=O)(=O)c1ccc(C(=O)Nc2nc(-c3ccccn3)cs2)cc1 (configuration not stated),inconclusive: 89.6%
25,COc1cc(C(CCN2CCCC(C)C2)c2c(OC)cc(OC)c3c2OC(=O)CC3c2ccc(N(C)C)cc2)cc(OC)c1OC (configuration not stated),inconclusive: 37.2%
26,Oc1c(CN2CCOCC2)cc(CN2CCOCC2)cc1CN1CCOCC1,inactive: -23.8%

# Compounds from the list above containing a halogen (8):
row,Structure (SMILES),inhibition
5,O=C(NC(=S)Nc1ccc(F)c([N+](=O)[O-])c1)c1ccccc1F,inactive: 6.76%
9,O=C(Nc1cccc(O)c1)c1ccc([N+](=O)[O-])cc1Cl,inactive: -2.66%
12,O=C1/C(=C\c2cc(Br)cc(Br)c2O)SC(=S)N1Cc1ccccc1,inconclusive: 40%
16,O=C(N/N=C/c1ccc(Br)cc1)c1cc[n+]([O-])cc1,inactive: 6.04%
19,COc1cc(/C=C2\SC(=O)N(c3ccc(Cl)cc3)C2=O)cc([N+](=O)[O-])c1O,inactive: -5.87%
20,O=C(CN1CC(=O)Oc2ccccc21)OCC(=O)c1cccc(Br)c1,inconclusive: 94.9%
1,CCOc1ccc(NC(=O)C(c2ccccn2)N(C(=O)CCl)c2ccc(F)cc2)cc1 (configuration not stated),inconclusive: 31.5%
4,Cc1ccc(Cl)cc1NC1=C/C(=N\S(=O)(=O)c2cccs2)c2ccccc2C1=O,inactive: 17.4% and inactive: 16.6%
